# Measured values published in patent US20240122890A1, “USE OF EXOGENOUS KETONE ESTERS TO INDUCE WEIGHT LOSS IN MAMMALS” (Buck Institute for Research on Aging, priority 2021, published 2024).
# At least one compound was matched to its structure with a doubt left.
# Test: Body weight of middle aged mice given KE-food after acclimation
# Assay type: in vivo, C57/BL6 mice
# Details: eleven month old male and female mice, FIG. 1
smiles,measurement,setting,value
"CCCCCC(=O)OCC[C@@H](C)OC(=O)CCCCC [KE, bis hexanoyl (R)-1,3-butanediol]",body weight during the acclimation period,choice between control and 5% then 20% KE-food pellets,maintained a stable body weight
same,body weight when switched to 20% KE-food,"diet containing 20% KE (by weight), week 3",lost weight
